Experimental data published in paper PMC5897363.
These are yes or no findings as the source states them, for the method shown. In cells and extracts the contact can be indirect. Some results given as binding are weak or reduced against the parent protein; the word gives no strength.

The chains behind the UniProt entries cited, without tags or fusion partners.
UniProt Q9Z148: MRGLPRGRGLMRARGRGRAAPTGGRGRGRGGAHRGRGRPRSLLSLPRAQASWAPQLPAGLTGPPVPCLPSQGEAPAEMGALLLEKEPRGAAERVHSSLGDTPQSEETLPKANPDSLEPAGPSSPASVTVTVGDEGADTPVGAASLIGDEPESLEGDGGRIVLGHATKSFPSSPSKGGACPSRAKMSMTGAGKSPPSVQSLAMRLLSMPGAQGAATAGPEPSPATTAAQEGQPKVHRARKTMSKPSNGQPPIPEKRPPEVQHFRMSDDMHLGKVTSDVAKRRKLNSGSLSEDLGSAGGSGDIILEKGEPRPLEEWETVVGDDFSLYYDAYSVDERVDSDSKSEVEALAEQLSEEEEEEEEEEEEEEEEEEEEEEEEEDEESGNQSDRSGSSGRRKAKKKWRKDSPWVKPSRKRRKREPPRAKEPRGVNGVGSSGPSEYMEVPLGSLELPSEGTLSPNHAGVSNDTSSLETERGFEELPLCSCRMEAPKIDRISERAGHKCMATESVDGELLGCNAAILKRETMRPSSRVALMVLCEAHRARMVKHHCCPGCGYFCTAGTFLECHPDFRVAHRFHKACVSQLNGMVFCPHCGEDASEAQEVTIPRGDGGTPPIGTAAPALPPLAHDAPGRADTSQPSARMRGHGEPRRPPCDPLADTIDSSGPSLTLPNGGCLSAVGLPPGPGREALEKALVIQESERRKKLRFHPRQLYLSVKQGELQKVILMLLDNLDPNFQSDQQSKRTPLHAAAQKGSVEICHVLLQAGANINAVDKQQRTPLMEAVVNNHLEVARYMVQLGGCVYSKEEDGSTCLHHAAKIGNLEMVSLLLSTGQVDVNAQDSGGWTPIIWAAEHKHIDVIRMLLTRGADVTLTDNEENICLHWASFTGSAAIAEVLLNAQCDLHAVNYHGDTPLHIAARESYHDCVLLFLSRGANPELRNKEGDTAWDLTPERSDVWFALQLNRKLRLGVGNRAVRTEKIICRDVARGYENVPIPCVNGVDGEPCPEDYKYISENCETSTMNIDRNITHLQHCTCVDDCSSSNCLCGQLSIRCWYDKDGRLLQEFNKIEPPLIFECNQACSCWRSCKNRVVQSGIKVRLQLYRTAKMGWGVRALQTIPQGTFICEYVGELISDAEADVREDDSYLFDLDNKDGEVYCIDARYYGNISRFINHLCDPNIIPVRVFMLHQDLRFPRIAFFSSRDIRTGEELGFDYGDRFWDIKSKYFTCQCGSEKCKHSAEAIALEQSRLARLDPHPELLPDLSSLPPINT
UniProt Q91YD9: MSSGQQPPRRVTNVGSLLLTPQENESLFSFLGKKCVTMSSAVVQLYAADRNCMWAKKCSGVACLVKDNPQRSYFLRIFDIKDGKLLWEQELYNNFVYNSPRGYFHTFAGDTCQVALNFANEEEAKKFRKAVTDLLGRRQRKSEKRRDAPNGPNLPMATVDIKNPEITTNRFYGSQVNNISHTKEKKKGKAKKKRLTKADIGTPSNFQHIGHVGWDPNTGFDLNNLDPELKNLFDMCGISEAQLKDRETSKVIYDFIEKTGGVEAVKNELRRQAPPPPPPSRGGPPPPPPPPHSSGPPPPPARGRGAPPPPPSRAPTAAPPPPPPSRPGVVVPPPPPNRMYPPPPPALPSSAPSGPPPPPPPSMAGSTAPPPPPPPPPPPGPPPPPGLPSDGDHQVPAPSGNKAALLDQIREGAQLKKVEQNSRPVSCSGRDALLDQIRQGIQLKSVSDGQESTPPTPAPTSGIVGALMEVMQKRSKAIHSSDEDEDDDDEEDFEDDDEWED

What was measured:
[1] = target: G9a (mouse (endogenous in primary keratinocytes)) (UniProt Q9Z148); experiment: co-IP; nuclear lysates of primary mouse keratinocytes, Nuclear Complex Co-IP Kit (Active Motif); precipitated with anti-N-WASP or anti-G9a and Protein A agarose; IgG as control; blots for G9a, GLP, N-WASP
[2] = target: neural Wiskott-Aldrich syndrome protein (N-WASP) (mouse (endogenous in primary keratinocytes)) (UniProt Q91YD9); experiment: as above

binding [1]	binding [2]	Substance
binds		neural Wiskott-Aldrich syndrome protein (N-WASP) (from UniProt Q91YD9 1-501)
	binds	G9a (from UniProt Q9Z148 1-1263) (enzyme)
